The chains behind the UniProt entries cited, without tags or fusion partners. Where a name states a change or a piece, a line headed by the entry shows the natural chain unless it says otherwise.
UniProt Q01892: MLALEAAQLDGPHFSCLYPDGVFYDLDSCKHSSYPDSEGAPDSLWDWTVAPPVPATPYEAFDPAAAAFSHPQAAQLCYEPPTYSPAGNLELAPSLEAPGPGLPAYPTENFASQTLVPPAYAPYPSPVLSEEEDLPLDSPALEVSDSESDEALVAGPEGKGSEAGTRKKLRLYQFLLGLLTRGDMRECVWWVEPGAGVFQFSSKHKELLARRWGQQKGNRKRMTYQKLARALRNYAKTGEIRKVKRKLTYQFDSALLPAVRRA
UniProt Q99607: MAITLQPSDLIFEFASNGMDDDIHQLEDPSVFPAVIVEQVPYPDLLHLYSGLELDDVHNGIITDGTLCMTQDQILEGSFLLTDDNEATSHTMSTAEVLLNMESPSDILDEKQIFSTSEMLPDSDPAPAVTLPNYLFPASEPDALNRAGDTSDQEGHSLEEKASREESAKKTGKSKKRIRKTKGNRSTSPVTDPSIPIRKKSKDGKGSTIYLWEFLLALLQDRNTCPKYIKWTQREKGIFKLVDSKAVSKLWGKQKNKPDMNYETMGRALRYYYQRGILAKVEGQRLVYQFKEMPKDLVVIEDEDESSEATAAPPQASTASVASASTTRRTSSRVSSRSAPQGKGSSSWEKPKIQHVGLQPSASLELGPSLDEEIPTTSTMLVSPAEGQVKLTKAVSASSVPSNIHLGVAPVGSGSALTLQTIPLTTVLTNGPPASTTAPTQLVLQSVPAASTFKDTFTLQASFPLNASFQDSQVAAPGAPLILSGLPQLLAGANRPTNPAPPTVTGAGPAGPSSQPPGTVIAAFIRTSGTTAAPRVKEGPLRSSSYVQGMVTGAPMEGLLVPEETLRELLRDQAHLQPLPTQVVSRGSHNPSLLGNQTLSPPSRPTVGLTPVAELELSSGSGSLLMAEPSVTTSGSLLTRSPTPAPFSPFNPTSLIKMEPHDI

The list shows a part of the results, in another mix than the full data. At the low end of the ranking the order means little.
These sequences were tested against T1, EHF (UniProt Q9NZC4) (assay: DAPPL (digital affinity profiling via proximity ligation, sequencing)). Conditions: 10 mM Tris-HCl pH 7.5, 50 mM NaCl, 1 mM DTT, 4% glycerol, room temperature, 30 min; GST-TFs on glutathione beads, 16-mer random dsDNA library, 0.1% …; high values mean tight binding; double strand, one strand shown; scale: fold enrichment (6-mer frequency, TF over GST control).
T1 sequence: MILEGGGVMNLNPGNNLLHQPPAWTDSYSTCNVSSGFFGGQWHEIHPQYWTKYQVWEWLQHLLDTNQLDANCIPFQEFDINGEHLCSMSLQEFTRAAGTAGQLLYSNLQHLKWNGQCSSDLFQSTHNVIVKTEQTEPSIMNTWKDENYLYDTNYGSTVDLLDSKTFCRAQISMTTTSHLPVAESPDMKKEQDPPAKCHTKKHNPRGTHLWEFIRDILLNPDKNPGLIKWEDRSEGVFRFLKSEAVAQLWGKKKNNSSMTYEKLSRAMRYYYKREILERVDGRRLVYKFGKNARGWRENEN
CTTATT gave a binding signal of 1.48.
TGCTTG showed a binding signal of 1.31.
In the case of ACCCAT, the binding signal is reported as 1.16.
Sequence GCCTGA has a binding signal of 0.98.
AACGCC was tested, and the binding signal was 1.15.
For GGTATG, the binding signal was 0.9.
Work on TTGCAG yielded a binding signal of 0.99.
AGTGGC gave a binding signal of 1.4.
For GTCACT, the binding signal was 1.15.
GTAATG was tested, and the binding signal was 1.12.
In the case of TCAGTT, the binding signal is reported as 0.928.

Each sequence was assayed against SPIB (UniProt Q01892) in the same assay as above. Conditions: 10 mM Tris-HCl pH 7.5, 50 mM NaCl, 1 mM DTT, 4% glycerol, room temperature, 30 min; GST-TFs on glutathione beads, 16-mer random dsDNA library, 0.1% …; high values mean tight binding; double strand, one strand shown; scale: fold enrichment (6-mer frequency, TF over GST control).
With CATGTA the binding signal was 0.996.
Sequence TCACGG has a binding signal of 0.945.
In the case of CTGTGC, the binding signal is reported as 1.13.
Sequence ACGACG has a binding signal of 0.974.
TTTTAG gave a binding signal of 1.3.
TGCTTG gave a binding signal of 1.2.
TGCGTT was tested, and the binding signal was 1.11.
In the case of ACGTTT, the binding signal is reported as 1.35.
GCCGCC gave a binding signal of 0.958.
TTCTTA showed a binding signal of 1.28.
In the case of TCGCCG, the binding signal is reported as 1.16.
With CACATC the binding signal was 1.46.
For AACAAG, the binding signal was 1.06.
Sequence ATCGCA has a binding signal of 0.975.
In the case of TTGCAG, the binding signal is reported as 1.16.
AAGGCT gave a binding signal of 1.01.
Work on AAGGCA yielded a binding signal of 0.971.
CCTGCT showed a binding signal of 1.59.
In the case of GTAATG, the binding signal is reported as 1.06.
GCTAAC gave a binding signal of 0.989.
TCAGTT was tested, and the binding signal was 0.987.

What follows are sequences tested against ELF4 (UniProt Q99607) in the same assay as above. Conditions: 10 mM Tris-HCl pH 7.5, 50 mM NaCl, 1 mM DTT, 4% glycerol, room temperature, 30 min; GST-TFs on glutathione beads, 16-mer random dsDNA library, 0.1% …; high values mean tight binding; double strand, one strand shown; scale: fold enrichment (6-mer frequency, TF over GST control).
With CATGTA the binding signal was 1.14.
In the case of TCACGG, the binding signal is reported as 0.995.
For CTGTGC, the binding signal was 1.21.
CTTATT was tested, and the binding signal was 1.43.
ACGACG was tested, and the binding signal was 1.2.
Sequence TTTTAG has a binding signal of 1.24.
For TGCTTG, the binding signal was 1.12.
In the case of TGCGTT, the binding signal is reported as 1.05.
TCAATT was tested, and the binding signal was 1.18.
In the case of ACGTTT, the binding signal is reported as 1.14.
GCCGCC was tested, and the binding signal was 1.08.
With TTCTTA the binding signal was 1.41.
Sequence TACCTT has a binding signal of 1.38.
ACCCAT was tested, and the binding signal was 1.25.
With CCTTAA the binding signal was 1.3.
In the case of TCGCCG, the binding signal is reported as 1.21.
GCCTGA showed a binding signal of 1.06.
In the case of AACGCC, the binding signal is reported as 1.15.
ACCTCA gave a binding signal of 1.2.
AGTTTC showed a binding signal of 1.2.
Sequence CGCCCC has a binding signal of 1.28.
CACATC showed a binding signal of 1.36.
AACAAG was tested, and the binding signal was 1.17.
Sequence GGTATG has a binding signal of 0.983.
Work on CTCATC yielded a binding signal of 1.35.
In the case of ATCGCA, the binding signal is reported as 1.12.
TTGCAG was tested, and the binding signal was 1.09.
With CTCACC the binding signal was 1.28.
For AAGGCT, the binding signal was 0.997.
ACACTG showed a binding signal of 1.03.
AGTGGC gave a binding signal of 1.19.
With TTGCAA the binding signal was 1.19.
AAGGCA gave a binding signal of 1.03.
GTCACT gave a binding signal of 1.09.
CCTGCT was tested, and the binding signal was 1.69.
With GTAATG the binding signal was 1.08.
Work on GGACAT yielded a binding signal of 1.11.
GCTAAC showed a binding signal of 0.971.
For TCAGTT, the binding signal was 0.982.
Sequence TTATCT has a binding signal of 1.25.

The sequences below were run against T2, ETV2 (UniProt O00321) in the same assay as above. Conditions: 10 mM Tris-HCl pH 7.5, 50 mM NaCl, 1 mM DTT, 4% glycerol, room temperature, 30 min; GST-TFs on glutathione beads, 16-mer random dsDNA library, 0.1% …; high values mean tight binding; double strand, one strand shown; scale: fold enrichment (6-mer frequency, TF over GST control).
T2 sequence: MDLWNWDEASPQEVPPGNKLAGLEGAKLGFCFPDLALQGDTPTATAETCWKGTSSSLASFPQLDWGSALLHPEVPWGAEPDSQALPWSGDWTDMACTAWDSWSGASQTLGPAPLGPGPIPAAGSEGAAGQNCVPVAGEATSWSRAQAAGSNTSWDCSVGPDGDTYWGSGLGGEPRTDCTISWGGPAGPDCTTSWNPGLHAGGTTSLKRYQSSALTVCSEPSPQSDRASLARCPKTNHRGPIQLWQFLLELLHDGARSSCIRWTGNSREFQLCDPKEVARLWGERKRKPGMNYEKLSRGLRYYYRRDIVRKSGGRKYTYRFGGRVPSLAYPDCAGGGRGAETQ
With TCACGG the binding signal was 0.957.
ACGACG gave a binding signal of 1.16.
With TGCTTG the binding signal was 1.26.
Sequence TGCGTT has a binding signal of 1.16.
GCCGCC gave a binding signal of 0.836.
TTCTTA showed a binding signal of 1.36.
With CACATC the binding signal was 1.44.
In the case of AACAAG, the binding signal is reported as 1.
ATCGCA was tested, and the binding signal was 0.977.
TTGCAG was tested, and the binding signal was 1.17.
AAGGCT showed a binding signal of 1.15.
Work on AAGGCA yielded a binding signal of 0.889.
For CCTGCT, the binding signal was 1.59.
GTAATG was tested, and the binding signal was 1.04.

These sequences were tested against T3, ETV3L (UniProt Q6ZN32) in the same assay as above. Conditions: 10 mM Tris-HCl pH 7.5, 50 mM NaCl, 1 mM DTT, 4% glycerol, room temperature, 30 min; GST-TFs on glutathione beads, 16-mer random dsDNA library, 0.1% …; high values mean tight binding; double strand, one strand shown; scale: fold enrichment (6-mer frequency, TF over GST control).
T3 sequence: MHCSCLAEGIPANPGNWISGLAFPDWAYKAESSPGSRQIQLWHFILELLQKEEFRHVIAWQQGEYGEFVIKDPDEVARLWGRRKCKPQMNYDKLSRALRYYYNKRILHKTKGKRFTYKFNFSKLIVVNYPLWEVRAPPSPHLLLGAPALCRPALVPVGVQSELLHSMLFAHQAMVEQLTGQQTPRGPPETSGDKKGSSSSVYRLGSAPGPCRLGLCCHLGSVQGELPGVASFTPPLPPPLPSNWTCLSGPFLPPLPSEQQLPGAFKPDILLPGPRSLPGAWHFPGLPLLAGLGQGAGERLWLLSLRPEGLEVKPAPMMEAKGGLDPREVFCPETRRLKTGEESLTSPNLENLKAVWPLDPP
For CATGTA, the binding signal was 1.16.
CTGTGC showed a binding signal of 1.13.
CTTATT showed a binding signal of 1.5.
TTTTAG gave a binding signal of 1.26.
In the case of TCAATT, the binding signal is reported as 1.29.
In the case of ACGTTT, the binding signal is reported as 1.13.
TACCTT gave a binding signal of 1.34.
ACCCAT showed a binding signal of 1.34.
In the case of CCTTAA, the binding signal is reported as 1.44.
For TCGCCG, the binding signal was 1.25.
GCCTGA showed a binding signal of 1.12.
In the case of ACCTCA, the binding signal is reported as 1.29.
AGTTTC showed a binding signal of 1.33.
For CGCCCC, the binding signal was 1.31.
GGTATG showed a binding signal of 0.899.
In the case of CTCATC, the binding signal is reported as 1.5.
In the case of CTCACC, the binding signal is reported as 1.16.
Sequence ACACTG has a binding signal of 1.11.
In the case of AGTGGC, the binding signal is reported as 1.15.
Sequence TTGCAA has a binding signal of 1.19.
Work on GTCACT yielded a binding signal of 1.08.
GGACAT was tested, and the binding signal was 1.13.
For GCTAAC, the binding signal was 0.99.
Sequence TCAGTT has a binding signal of 1.05.
With TTATCT the binding signal was 1.44.
